Measurements: doi:10.1101/2022.08.15.504042
Results are given in words; binding and its absence hold for the method and conditions named. In cells and extracts the contact can be indirect. Some binding calls cover weakened binding; strength is not graded here. Sequences can lack the tags named with a protein.

Protein sequences, listed by entry. Tags and fused reporters are not part of them.
UniProt G5EF15: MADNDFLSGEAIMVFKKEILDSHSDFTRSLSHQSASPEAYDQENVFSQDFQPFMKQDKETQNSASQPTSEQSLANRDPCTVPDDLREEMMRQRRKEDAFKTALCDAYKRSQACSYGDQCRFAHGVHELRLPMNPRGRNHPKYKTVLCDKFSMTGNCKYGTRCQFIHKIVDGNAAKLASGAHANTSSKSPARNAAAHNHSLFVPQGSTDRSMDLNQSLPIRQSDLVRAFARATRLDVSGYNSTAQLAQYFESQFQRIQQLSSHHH

Biological target: T1, MEG-1::GFP (C. elegans) (UniProt Q21126)
T1 sequence: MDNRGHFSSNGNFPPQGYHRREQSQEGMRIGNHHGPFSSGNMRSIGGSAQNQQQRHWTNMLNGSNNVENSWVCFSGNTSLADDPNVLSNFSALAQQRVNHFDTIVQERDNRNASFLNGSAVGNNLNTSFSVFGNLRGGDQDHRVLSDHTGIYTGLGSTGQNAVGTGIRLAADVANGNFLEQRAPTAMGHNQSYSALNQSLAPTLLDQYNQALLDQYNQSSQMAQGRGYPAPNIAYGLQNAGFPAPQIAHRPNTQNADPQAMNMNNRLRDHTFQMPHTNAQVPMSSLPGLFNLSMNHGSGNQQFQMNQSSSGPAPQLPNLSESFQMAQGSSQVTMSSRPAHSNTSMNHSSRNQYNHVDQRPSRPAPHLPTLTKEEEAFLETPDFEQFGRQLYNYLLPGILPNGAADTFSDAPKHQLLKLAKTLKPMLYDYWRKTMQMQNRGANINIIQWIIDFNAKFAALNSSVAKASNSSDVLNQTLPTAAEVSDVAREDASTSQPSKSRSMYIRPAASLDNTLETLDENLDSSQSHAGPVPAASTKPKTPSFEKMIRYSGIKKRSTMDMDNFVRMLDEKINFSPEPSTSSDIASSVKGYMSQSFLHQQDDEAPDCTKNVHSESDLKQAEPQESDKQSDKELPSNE
Experiment: co-IP

binding: binds
Substance: POS-1 (from UniProt G5EF15 1-264)
